Measured values taken from PMC9597953.
No constants are given. Whether binding was seen depends on the method and setting. Binding seen in cells or lysates may run through a third protein. Some entries that bind do so weakly or less than the wild type. For part of these data: Sequences can lack the tags named with a protein.

By UniProt entry, the sequences of proteins in these tests, tags left out. Where a name states a change or a piece, a line headed by the entry shows the natural chain unless it says otherwise.
UniProt Q12756: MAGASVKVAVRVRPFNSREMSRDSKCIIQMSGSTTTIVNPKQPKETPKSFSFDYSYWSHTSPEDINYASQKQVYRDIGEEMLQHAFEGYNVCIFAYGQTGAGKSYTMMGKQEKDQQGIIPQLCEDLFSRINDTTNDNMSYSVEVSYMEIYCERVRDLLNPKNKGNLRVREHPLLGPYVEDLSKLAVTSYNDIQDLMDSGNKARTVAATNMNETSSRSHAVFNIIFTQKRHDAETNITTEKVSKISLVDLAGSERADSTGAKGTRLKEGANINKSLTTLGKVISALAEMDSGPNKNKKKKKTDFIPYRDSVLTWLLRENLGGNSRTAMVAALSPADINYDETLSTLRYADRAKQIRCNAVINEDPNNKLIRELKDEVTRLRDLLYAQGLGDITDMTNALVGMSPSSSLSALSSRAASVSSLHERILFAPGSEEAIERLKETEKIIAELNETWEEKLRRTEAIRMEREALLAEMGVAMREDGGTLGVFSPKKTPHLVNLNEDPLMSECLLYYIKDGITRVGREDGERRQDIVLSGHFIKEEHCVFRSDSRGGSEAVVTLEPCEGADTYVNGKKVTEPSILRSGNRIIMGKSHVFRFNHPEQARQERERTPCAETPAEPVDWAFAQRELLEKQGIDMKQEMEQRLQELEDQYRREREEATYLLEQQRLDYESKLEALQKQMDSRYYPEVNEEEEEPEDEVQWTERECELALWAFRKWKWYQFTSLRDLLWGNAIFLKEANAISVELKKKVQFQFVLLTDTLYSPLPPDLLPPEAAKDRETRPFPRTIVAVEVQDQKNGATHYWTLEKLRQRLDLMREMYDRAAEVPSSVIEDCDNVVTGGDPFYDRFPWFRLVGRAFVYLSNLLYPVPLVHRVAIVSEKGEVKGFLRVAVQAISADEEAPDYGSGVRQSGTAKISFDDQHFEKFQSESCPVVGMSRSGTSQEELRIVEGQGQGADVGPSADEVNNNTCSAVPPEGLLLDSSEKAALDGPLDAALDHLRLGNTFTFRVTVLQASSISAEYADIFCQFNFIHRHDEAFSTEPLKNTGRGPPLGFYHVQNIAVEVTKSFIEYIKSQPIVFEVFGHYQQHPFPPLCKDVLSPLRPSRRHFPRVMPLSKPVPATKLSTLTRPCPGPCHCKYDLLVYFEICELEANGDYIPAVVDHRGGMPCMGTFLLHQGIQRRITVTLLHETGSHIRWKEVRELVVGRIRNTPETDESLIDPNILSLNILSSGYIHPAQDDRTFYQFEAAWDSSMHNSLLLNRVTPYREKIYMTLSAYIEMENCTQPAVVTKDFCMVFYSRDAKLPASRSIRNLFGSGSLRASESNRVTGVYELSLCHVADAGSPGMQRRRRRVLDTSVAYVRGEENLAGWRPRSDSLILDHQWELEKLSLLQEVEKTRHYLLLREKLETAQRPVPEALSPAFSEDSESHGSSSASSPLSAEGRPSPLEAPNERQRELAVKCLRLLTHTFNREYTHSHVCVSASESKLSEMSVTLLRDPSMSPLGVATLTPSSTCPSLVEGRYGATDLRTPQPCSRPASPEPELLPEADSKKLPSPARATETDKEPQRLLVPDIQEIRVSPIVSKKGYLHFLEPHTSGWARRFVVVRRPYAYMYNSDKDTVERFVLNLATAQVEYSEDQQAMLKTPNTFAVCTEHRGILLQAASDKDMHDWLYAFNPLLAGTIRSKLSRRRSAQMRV
UniProt P63027: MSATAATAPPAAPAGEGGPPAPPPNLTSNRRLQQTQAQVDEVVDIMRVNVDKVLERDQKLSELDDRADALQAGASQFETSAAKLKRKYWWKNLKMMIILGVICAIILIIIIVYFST
UniProt P08247: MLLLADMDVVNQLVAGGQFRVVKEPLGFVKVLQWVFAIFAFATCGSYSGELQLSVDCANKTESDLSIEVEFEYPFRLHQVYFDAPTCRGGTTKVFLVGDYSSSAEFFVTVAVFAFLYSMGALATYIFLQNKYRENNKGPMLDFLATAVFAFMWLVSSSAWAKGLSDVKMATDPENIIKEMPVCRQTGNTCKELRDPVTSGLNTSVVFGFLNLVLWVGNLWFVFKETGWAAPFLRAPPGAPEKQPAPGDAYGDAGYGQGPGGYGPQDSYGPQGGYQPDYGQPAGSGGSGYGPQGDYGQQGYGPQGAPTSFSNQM

Experiments:
[1] = molecular target: KIF1A-3xFLAG R370C (human) (UniProt Q12756); experiment: co-IP; HEK293T cells, KIF1A (WT or variant) with synaptophysin; which partner was precipitated is not stated in the text (methods: anti-FLAG M2 beads, 20 mM Tris-HCl pH 7.5, 150 mM NaCl, 1 mM EGTA, 1% Triton X-100)
[2] = molecular target: KIF1A-3xFLAG Y799C (human) (UniProt Q12756); experiment: as above
[3] = molecular target: KIF1A-3xFLAG, wild type (human) (UniProt Q12756); experiment: as above
FLAG-RAB3A = molecular target: T1, FLAG-RAB3A (UniProt P20336); experiment: co-IP; HEK293T cells cotransfected with FLAG-RAB3A or FLAG-VAMP2 and KIF1A-Venus; lysis in 20 mM Tris-HCl pH 7.5, 150 mM NaCl, 1 mM EGTA, 1% Triton X-100; anti-FLAG M2 beads 4 h at 4 °C; blot with anti-GFP and anti-FLAG
T1 sequence: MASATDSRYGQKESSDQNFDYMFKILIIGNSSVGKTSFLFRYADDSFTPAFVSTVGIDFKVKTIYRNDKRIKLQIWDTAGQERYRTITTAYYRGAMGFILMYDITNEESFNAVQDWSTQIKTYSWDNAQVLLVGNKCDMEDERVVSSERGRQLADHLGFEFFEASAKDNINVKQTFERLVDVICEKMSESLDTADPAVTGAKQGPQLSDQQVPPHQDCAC

FLAG-VAMP2 = FLAG-VAMP2 (UniProt P63027); experiment: as above

Row | Substance | binding [1] | binding [2] | binding [3] | binding (FLAG-RAB3A) | binding (FLAG-VAMP2)
1 | RFP-synaptophysin (from UniProt P08247 1-313) | binds | binds | binds |  | 
2 | KIF1A-Venus R370C (from UniProt Q12756-1 1-1690) |  |  |  | binds | binds
3 | KIF1A-Venus R1100C (from UniProt Q12756-1 1-1690) |  |  |  | binds | binds

Further lines, results first:

Row | binding [1] | binding [2] | binding [3] | binding (FLAG-RAB3A) | binding (FLAG-VAMP2) | Substance
4 |  |  |  | binds | binds | KIF1A-Venus A1643V (from UniProt Q12756-1 1-1690)
5 |  |  |  | binds | binds | KIF1A-Venus, wild type (from UniProt Q12756-1 1-1690)
6 |  |  |  | binds | binds | KIF1A-Venus P1587L (from UniProt Q12756-1 1-1690)
7 |  |  |  | binds | binds | KIF1A-Venus R1356Q (from UniProt Q12756-1 1-1690)
